Assay results reported in publication doi:10.1101/2023.06.05.543428.
Results are given in words; binding and its absence hold for the method and conditions named. In cells and extracts the contact can be indirect.

Amino acid sequences for entries named in this document (tags omitted). A change or cut given only in a name is not applied to a line headed by its entry. Residues count along the entry.
UniProt Q9Y6K9, 2-329: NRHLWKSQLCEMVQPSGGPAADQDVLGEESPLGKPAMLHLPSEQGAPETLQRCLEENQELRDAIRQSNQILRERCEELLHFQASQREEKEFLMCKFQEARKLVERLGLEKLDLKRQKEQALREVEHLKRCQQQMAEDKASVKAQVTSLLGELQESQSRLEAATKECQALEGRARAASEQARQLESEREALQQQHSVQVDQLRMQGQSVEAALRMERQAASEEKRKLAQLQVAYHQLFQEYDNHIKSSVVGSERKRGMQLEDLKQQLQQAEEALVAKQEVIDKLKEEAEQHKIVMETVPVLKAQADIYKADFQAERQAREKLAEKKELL
UniProt Q96EP0, whole entry: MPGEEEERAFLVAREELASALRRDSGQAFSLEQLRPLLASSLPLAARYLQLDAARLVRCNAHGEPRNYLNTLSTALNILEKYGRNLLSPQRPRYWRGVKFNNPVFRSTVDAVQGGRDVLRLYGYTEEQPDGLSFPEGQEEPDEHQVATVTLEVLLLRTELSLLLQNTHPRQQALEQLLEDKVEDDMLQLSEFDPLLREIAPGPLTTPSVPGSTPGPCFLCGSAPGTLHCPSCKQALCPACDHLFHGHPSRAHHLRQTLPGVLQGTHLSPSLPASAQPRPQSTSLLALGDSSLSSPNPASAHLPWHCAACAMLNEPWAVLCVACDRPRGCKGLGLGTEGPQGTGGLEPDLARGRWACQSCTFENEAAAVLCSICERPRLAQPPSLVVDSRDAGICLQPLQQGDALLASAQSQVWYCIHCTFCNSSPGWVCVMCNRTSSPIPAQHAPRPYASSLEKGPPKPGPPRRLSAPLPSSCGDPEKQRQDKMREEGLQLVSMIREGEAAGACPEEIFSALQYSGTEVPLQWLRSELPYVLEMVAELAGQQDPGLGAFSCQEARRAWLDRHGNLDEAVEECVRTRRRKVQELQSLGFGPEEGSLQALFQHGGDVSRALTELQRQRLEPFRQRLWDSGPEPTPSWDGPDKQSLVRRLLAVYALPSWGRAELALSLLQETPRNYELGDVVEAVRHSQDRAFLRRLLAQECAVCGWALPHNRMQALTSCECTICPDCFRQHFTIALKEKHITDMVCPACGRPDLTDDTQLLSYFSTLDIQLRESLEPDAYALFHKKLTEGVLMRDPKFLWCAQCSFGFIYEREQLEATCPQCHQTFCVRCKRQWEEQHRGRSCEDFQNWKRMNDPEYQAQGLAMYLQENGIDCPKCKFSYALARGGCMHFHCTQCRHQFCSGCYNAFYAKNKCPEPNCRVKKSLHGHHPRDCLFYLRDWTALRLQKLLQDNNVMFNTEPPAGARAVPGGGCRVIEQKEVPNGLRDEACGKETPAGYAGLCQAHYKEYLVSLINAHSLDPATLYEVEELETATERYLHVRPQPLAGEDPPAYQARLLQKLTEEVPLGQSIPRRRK

Target: HA-tagged Q330X NEMO (human) (UniProt Q9Y6K9)
Test: co-IP

| binding | Substance |
| --- | --- |
| no binding | endogenous HOIP (from UniProt Q96EP0 1-1072) |
| no binding | endogenous p62/SQSTM1 (from UniProt Q13501 1-440) |
